Experimental data from article doi:10.1101/822965.
Results are given in words; binding and its absence hold for the method and conditions named. Binding seen in cells or lysates may run through a third protein. A result given as binding can be weak or reduced; the word gives no strength.

Amino acid sequences for entries named in this document (tags omitted). A change or cut given only in a name is not applied to a line headed by its entry.
UniProt P46379: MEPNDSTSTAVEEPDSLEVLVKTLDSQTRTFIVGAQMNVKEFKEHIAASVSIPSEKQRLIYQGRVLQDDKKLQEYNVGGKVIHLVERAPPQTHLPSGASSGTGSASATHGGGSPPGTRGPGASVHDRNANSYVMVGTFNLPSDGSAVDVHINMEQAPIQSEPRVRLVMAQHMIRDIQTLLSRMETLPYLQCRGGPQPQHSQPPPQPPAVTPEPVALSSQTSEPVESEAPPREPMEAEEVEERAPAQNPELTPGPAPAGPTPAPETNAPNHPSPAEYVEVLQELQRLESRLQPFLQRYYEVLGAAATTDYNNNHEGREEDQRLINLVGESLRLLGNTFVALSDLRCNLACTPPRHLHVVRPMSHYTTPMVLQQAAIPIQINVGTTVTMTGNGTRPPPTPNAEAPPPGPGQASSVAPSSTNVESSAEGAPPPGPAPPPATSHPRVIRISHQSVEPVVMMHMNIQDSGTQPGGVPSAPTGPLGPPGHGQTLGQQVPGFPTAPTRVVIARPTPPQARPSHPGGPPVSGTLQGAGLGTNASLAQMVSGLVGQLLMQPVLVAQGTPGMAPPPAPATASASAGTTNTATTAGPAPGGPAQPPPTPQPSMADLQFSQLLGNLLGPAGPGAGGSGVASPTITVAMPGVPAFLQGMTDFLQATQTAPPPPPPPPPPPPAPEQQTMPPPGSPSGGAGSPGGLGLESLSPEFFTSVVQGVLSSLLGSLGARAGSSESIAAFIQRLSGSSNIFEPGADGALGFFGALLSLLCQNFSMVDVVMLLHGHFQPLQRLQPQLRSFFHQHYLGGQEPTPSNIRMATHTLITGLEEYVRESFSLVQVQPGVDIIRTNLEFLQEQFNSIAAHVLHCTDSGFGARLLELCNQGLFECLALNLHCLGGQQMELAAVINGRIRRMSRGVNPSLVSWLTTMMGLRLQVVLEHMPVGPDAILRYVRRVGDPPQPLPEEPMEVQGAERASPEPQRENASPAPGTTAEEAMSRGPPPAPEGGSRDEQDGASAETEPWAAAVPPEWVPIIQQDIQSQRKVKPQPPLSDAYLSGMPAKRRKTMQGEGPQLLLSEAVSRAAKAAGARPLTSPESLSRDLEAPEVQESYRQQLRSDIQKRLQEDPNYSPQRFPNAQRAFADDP
UniProt P18850: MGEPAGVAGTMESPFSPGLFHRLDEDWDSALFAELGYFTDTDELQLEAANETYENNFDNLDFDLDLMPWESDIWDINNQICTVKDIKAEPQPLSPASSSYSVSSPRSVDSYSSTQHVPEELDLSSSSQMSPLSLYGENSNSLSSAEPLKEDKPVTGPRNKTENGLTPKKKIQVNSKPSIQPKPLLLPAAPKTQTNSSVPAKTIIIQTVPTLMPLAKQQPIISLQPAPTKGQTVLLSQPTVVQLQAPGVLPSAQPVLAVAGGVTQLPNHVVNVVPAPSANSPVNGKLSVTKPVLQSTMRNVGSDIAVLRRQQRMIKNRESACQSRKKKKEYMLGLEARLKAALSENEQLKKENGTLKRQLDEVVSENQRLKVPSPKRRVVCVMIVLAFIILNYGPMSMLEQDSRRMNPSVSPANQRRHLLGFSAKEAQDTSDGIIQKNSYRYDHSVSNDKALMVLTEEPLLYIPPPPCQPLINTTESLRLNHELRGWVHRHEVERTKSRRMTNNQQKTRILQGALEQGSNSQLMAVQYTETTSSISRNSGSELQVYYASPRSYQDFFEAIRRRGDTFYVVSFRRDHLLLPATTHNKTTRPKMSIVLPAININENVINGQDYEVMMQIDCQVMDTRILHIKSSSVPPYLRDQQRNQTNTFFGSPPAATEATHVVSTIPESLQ

Biological target: BAG6 (BCL2-associated athanogene 6) (UniProt P46379)
Experiment: co-IP

## ATF6 Y567A (from UniProt P18850)
  binding: binds
